In experiment [1] the target is recombinant protein GST-PRL-3 (phosphatase of regenerating liver-3) (UniProt O75365). Description: pull-down; purified GST-PRL-3 (or GST) on agarose beads incubated with U251MG cell lysate overnight at 4°C; washed 5-8 times with RIPA buffer; SDS-PAGE, bands analysed by mass spectrometry, β3-tubulin detected by Western blot; only the target purified. In general terms: Immunoblotting shows a protein as a band on a membrane.

The chains behind the UniProt entries cited, without tags or fusion partners.
UniProt O75365: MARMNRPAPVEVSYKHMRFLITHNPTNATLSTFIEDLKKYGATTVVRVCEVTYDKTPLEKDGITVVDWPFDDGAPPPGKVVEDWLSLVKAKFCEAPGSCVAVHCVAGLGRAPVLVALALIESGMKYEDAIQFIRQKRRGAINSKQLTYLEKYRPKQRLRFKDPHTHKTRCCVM
UniProt Q13509: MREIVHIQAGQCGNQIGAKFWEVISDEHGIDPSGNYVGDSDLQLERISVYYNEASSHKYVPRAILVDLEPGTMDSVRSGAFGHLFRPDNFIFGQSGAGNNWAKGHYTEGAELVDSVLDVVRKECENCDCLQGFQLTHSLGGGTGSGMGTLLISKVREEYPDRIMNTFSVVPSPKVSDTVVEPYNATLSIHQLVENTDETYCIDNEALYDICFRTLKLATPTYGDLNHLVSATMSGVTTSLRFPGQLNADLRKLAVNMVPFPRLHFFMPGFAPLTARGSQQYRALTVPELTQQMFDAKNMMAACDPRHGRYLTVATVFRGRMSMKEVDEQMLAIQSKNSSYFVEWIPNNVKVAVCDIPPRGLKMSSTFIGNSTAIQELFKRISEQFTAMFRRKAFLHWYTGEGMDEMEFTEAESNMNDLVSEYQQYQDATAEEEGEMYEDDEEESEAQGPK

Experiment [2] concerns the target Class III β-tubulin (β3-tubulin) (human (endogenous in U251MG)) (UniProt Q13509). Nature of the experiment: co-IP; U251MG cell lysate, precleared with Protein A/G beads; 1 μg β3-tubulin antibody (control: IgG of the same type), overnight at 4°C; beads washed 3 times with PBS pH 7.4; PRL-3 detected by Western blot.

Results are given in words; binding and its absence hold for the method and conditions named. Binding seen in cells or lysates may run through a third protein. Some binding calls cover weakened binding; strength is not graded here.

On to “Class III β-tubulin (β3-tubulin) (from UniProt Q13509 1-450)”, for which the binding entry in experiment [1] is “binds”.

For the substance “PRL-3 (phosphatase of regenerating liver-3), endogenous (from UniProt O75365 1-173) (enzyme)”, the binding entry in experiment [2] was “binds”.

The values above are taken from paper PMC8973939.
